Sequences and labels used below:
B1: il2ra_site2_3nfp_normal_mot_HHH_b2_03679_000000086_0001_41_56_H_._HHH_b2_03760_0001_0000100002_0000001_0 (protein)
chain: SSSSSELEEYLEAAVLLLEEALKEGDEEIAEKLLELVLKAAEDANDDEIERRLEEIEKELSSSSS
B2: il2ra_site1_2b5i_sap_8_mot_HHH_b1_04517_000000040_0001_39_52_H_._HHH_b2_05314_0001_0000400027_0000001_0_0001_af2pred_dldesign_0_af2pred (protein)
chain: SSSDPKALAETAAAIVEELEEKYNLNLEQSAVLERLAVELVWKGVSPEEIRRRLEALAKELSSSS
B3: il2ra_site1_3nfp_normal_mot_HHH_b1_01683_000000180_0001_19_35_H_._HHH_b2_05362_0001_0000600031_0000001_0 (protein)
chain: SSSSSSEEKEELLRRLFRLAKEAKSEEELKKILEEAEELAEELGDEKLLRDIEIWLKLLESSSSS
B4: il2ra_site2_3nfp_normal_mot_HHH_b1_07095_000000265_0001_1_20_H_._HHH_b2_06641_0001_0000100001_0000001_1 (protein)
chain: SSSSDVEERVQELLEEAERLLEEGNPEEARKLVQEAAHLAYEARNFELFALVNEVLAKIVLSSSS
B5: il2ra_site1_2b5i_sap_14_mot_HHH_eva_0271_af2_000000019_0001_1_17_H_._b0be08dbeb19038e97ce33ab5425b229_0001_af2_0001_0000100006_0000001_0_0001_af2pred_0001_af2pr … (protein)
chain: SSSDELRELDRYLVRVIYELRVRLGLSSEQARELARLAAELAEEGISEEEAEQILRKLAEELSSS
B6: il2ra_site1_2b5i_normal_mot_HHH_b1_06258_af2_000000112_0001_42_56_H_._HHH_b1_05797_0001_0000200011_0000001_0 (protein)
chain: SSSSDEEFEEAAELFLEASRAYKKGNPEEARELLERALEILERGGDPLAEQVEFMLRRLRSSSSS
B7: il2ra_site1_3nfp_sap_18_mot_HHH_b1_05931_000000015_0001_42_57_H_._HHH_b1_04798_af2_0001_0000300009_0000001_0_0001_af2pred_0001_af2pred_1_swapped (protein)
chain: SLEEALEFLEQLAEELNDPALKALVRQLEKLVRNGNEELAKRAVEYFLKRSGSPILEEVLKLLRK
B8: il2ra_site2_3nfp_normal_mot_3824cfb560b92ee870597236e80092b0_0001_000000220_0001_16_33_H_._HHH_b2_01894_0001_0000300040_0000001_1 (protein)
chain: SSSSSSDTEERVEELLEEAEKIEDPEEARRVVAEAALIAAEARNFELFALVIELLAEIASSSSSS
B9: il2ra_site2_3nfp_normal_mot_HHH_b1_05437_000000005_0001_40_57_H_._HHH_b2_02858_0001_0000400023_0000001_0 (protein)
chain: SSSSDEEELRRRVEELLEEAEEIDDPEERRKVLAEATNLAYEGRDFELFALVAEVLFKLGSSSSS
B10: il2ra_site2_3nfp_normal_mot_ems_p1-15H-GBL-16H-GBL-14H_0089_0001_0001_0001_af2_000000072_0001_19_33_H_._HHH_b1_02393_0001_0000100012_0000001_0_af2pred_0001_af2p … (protein)
chain: SSSSSDEEEREEVEELLEEAKHIEDEFELFAVLADALAIAIELNDPELERLVREVIAKLQSSSSS
B11: il2ra_site2_3nfp_sap_28_mot_HHH_b1_06589_000000230_0001_37_50_H_._HHH_b2_02307_af2_0001_0000200010_0000001_0_0001_af2pred_0001_af2pred (protein)
chain: SSSSDAHEEIARLLQRAEELYENGNPEEARELIKEAEELAEENNDEHAEFAVRAELILLKLSSSS
B12: il2ra_site1_1z92_sap_13_mot_HHH_b1_06381_000000058_0001_42_59_H_._HHH_b1_06884_0001_0000100002_0000001_0_0001_af2pred_0001_af2pred (protein)
chain: SSSSSSDEAFEEAAELFEEAAKLRDPEEVRRLLEEALELAEEAGDEVIARDIRQYLERLSSSSSS
B13: il2ra_site1_3nfp_sap_6_mot_119b7766384adbe86006a62bce89dba1_0001_af2_000000092_0001_18_32_H_._7316f35285ac56439be3f38723dbf1df_0001_1_0001_0000200007_0000001_0_ … (protein)
chain: SAIEVFVKRLARKGYPPEEIAERLFEIAEKTGTEEELERELEKLVKKTGDPTLKRILEVLEELVR
B14: il2ra_site1_2b5i_normal_mot_HHH_b2_07170_af2_000000076_0001_1_16_H_._HHH_b2_07371_0001_0000200019_0000001_0_af2pred_dldesign_0_af2pred (protein)
chain: SSSSSSSVRDVIEKAEELYLAGKPEEAIKVLEDAIARYTALGRAAQVRLLEAVLKQLLSSSSSSS
B15: il2ra_site2_2erj_normal_mot_HHH_b2_05866_000000027_0001_43_57_H_._HHH_b1_02287_0002_0000900047_0000001_0 (protein)
chain: SSSSDDEVSELIAEVVEALREGDRELARELLEEAERLAREANNPYLERYVELARRDLELLSSSSS
B16: il2ra_site2_3nfp_normal_mot_HHH_b1_06059_000000180_0001_38_52_H_._HHH_b1_08143_0001_0000200019_0000001_0 (protein)
chain: SSSSDKEEEIERLLEEAEELIERGDPERAQELLARATHLAFELGDPELYALVARVLQLLAHSSSS
B17: il2ra_site2_3nfp_sap_22_mot_HHH_b1_04032_000000208_0001_43_56_H_._HHH_b1_07323_0001_0000500012_0000001_0_0001 (protein)
chain: SSSSDVEELIEEAHRLIEEGDTNEAARALVEATHLATRAGDPELARLLLELYRLILEQYGSSSSS
B18: il2ra_site2_3nfp_normal_mot_HHH_b2_01278_000000069_0001_18_35_H_._HHH_b2_04693_0001_0000500017_0000001_0_af2pred_0001_af2pred (protein)
chain: SSSSDELQQQVAIAEWIAEEEGDDELLRQLEELLERYEREGDPRVREELEELAKEIIKLSTSSSS
B19: il2ra_site2_2erj_normal_mot_HHH_eva_0077_000000062_0001_1_20_H_._HHH_b1_03327_af2_0001_0000700006_0000001_0 (protein)
chain: SSSSDERLRELYELAVKILHALARNDEELLKELIKEAKELAEELDSPSARELVEALEKLLDSSSS
B20: il2ra_site1_1z92_sap_17_mot_07d2d8a42fb0c6931fb03626c2a0eeb8_0001_000000072_0001_36_50_H_._247dac63e089d0360fbd2958dd0f7702_0001_0001_0000200021_0000001_0_0001 (protein)
chain: SSSSSAREYIEEMARALARTIRAKGNPRAREILEWLLRQARILGDEELRELIEKLLEELRSSSSS
B21: il2ra_site2_3nfp_normal_mot_HHH_b1_07095_000000265_0001_1_20_H_._HHH_b1_08537_af2_0001_0000500029_0000001_0 (protein)
chain: SSSSDEEREEAEELLKEAQELLEEGNPEEAEEVVSRAAALAARANDFELFALANELMEKIISSSS
B22: il2ra_site1_2b5i_normal_mot_HHH_b2_04910_000000118_0001_1_19_H_._HHH_b2_07602_af2_0001_0000200008_0000001_0_af2pred_0001_af2pred (protein)
chain: SSSSSSNEAFELLREANELARNGNPEEARKVLEEAEEVARELGDRSILRLVEAALRSTSSSSSSS
B23: il2ra_site1_1z92_sap_15_mot_HHH_b2_06068_af2_000000044_0001_1_20_H_._HHH_b1_04293_0001_0000600039_0000001_0_0001_af2pred_0001_af2pred_1 (protein)
chain: SSSSDERLRRLLELAVELAVKVAGLSEEQEEELQKLAEELAERGVDFEEAFQIVIKLAAELSSSS
B24: il2ra_site1_2b5i_normal_mot_HHH_b2_04910_000000118_0001_1_19_H_._HHH_b2_01555_af2_0001_0000700011_0000001_0_af2pred_0001_af2pred (protein)
chain: SSSSSSSAEELLKEANELDQNGNPEEAKEVLEQAEEEAEKLNNRSLLRSIRAALRLSESSSSSSS

This is one part of the list.

In this test the target is il2ra, P01589. The experiment in a line: yeast display titration.
For B1, the “apparent Kd” value was “inactive: no binding seen”. For B2, the “apparent Kd” value is “inactive: no binding seen”. Consider B3, for which the “apparent Kd” value was “inactive: no binding seen”. The same measure for B4: “inactive: no binding seen”. Turning to B5, the “apparent Kd” value was “inactive: no binding seen”. The same measure for B6: “inactive: no binding seen”.

Take B7: the “apparent Kd” value was “inactive: no binding seen”. B8: the “apparent Kd” value is “inactive: no binding seen”.

In the case of B9, the “apparent Kd” value was “inactive: no binding seen”. B10: the “apparent Kd” value was “inactive: no binding seen”. In the case of B11, the “apparent Kd” value was “inactive: no binding seen”.

As for B12, the “apparent Kd” value was “inactive: no binding seen”. B13: the “apparent Kd” value is “inactive: no binding seen”.

As to B14, the “apparent Kd” value was “inactive: no binding seen”.

Regarding B15, the “apparent Kd” value was “inactive: no binding seen”.

As for B16, the “apparent Kd” value is “inactive: no binding seen”. Under B17 stands “inactive: no binding seen”. As to B18, the “apparent Kd” value was “inactive: no binding seen”.

With B19, the “apparent Kd” value is “inactive: no binding seen”.

As for B20, the “apparent Kd” value was “inactive: no binding seen”. Under B21 stands “inactive: no binding seen”. Under B22 stands “inactive: no binding seen”; under B23, “inactive: no binding seen”; under B24, “inactive: no binding seen”.
